# Measurements reported in PMC7819943, “Rice protein-binding microarrays: a tool to detect cis-acting elements near promoter regions in rice”.
# Chains of the proteins cited; added tags and fusions are not shown.
# UniProt Q0JBA9, entry or part of it: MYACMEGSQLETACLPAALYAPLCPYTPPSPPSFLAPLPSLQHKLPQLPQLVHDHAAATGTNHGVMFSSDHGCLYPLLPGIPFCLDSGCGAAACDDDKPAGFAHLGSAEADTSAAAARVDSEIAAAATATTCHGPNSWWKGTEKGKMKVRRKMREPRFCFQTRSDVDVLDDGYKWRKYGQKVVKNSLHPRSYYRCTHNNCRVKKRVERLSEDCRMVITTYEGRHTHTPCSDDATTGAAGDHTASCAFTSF
# The other results are listed elsewhere or left out.
# Target: OsWRKY34 (Oryza sativa, UniProt Q0JBA9 1-250)
# Assay: protein-binding microarray (RPBM); PBS, 2% BSA, 51.3 ng/ul salmon testes DNA, 50 uM zinc acetate, 200 nM TF, 25 C, 1 h; high values mean tight binding
# Conditions: protein: recombinant; tags: N-terminal polyhistidine and DsRed monomer fusion (pET32a); label: CyDye5-dUTP incorporated in the synthesized complementary strand; 3' TTTTT single-stranded linker to array surface; dsDNA, one strand shown
# Summary of the method: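 The binding signal for each feature is its fluorescence intensity in arbitrary units. An Axon 4000B scanner was used to read a custom Agilent array that had been made double-stranded with Cy5-dUTP primer extension, blocked with 2% BSA, incubated at 25 °C for 1 h with 200 nM protein in PBS, 2% BSA, salmon testes DNA and 50 µM zinc acetate, and washed. The protein was an N-terminal polyhistidine–DsRed transcription factor fusion from E. coli BL21-CodonPlus, purified on Ni–NTA.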
row,Sequence,binding signal
1,AAGACATTGCATCAACCGTCTTGCCAATCTATGTTTTCTACGGAGTCACCTAGTGCAG,8280 fluorescence intensity (a.u.)
2,ATAATTGACTTATTATACTACTTCCTCCGTTTCACAATGTCGGAGTCACCTAGTGCAG,8380 fluorescence intensity (a.u.)
3,CTCACATCTCCCTTGTTCACTGTTTCTCCTTCACCATTCGCGGAGTCACCTAGTGCAG,9490 fluorescence intensity (a.u.)
4,AATACAAATTTTGACGTAAGCTTGCCCAAAGTTTCTTTACCGGAGTCACCTAGTGCAG,8360 fluorescence intensity (a.u.)
5,TCGTCTCACTTTACTACTCATTCCACTATTGTAAAGTCATCGGAGTCACCTAGTGCAG,8520 fluorescence intensity (a.u.)
6,TATGTCTTTCACTATACCTAAATGTGTGTTTATTTTTATTCGGAGTCACCTAGTGCAG,11400 fluorescence intensity (a.u.)
7,CACAGCCACATACATATGCCTGAATCTTTCTCAGCCTCTTCGGAGTCACCTAGTGCAG,12700 fluorescence intensity (a.u.)
8,CCTCCTCGCCGGCCATCGCGTCGCCGCGCGCCACCCGGTTCGGAGTCACCTAGTGCAG,8900 fluorescence intensity (a.u.)
9,AATTTGTTACTACTGCGGGCTTGTTTGGCACAGCTCACCTCGGAGTCACCTAGTGCAG,8200 fluorescence intensity (a.u.)
10,CACGCAACAGTTGGCAGGCTGAGCTCTCGTGACCCACCTTCGGAGTCACCTAGTGCAG,8590 fluorescence intensity (a.u.)
11,CACACCTGCCGCCGTACCACCAGTGCCGGCTCGCCACGTCCGGAGTCACCTAGTGCAG,8310 fluorescence intensity (a.u.)
12,ACAGCCAGCAACTATATGTTTTCAACAGGCCTGACTCAACCGGAGTCACCTAGTGCAG,10100 fluorescence intensity (a.u.)
13,ATTTGACCCTGTATTAATTATCCCTTCTTAAAGATTTTGTCGGAGTCACCTAGTGCAG,8030 fluorescence intensity (a.u.)
14,CTCACTTACACAAAACATAATTCTCAGTTTGCCATCCACGCGGAGTCACCTAGTGCAG,8570 fluorescence intensity (a.u.)
15,TAAAAATAAGGAGGTGCCCGCTTTTGTCATCCAACGCTACCGGAGTCACCTAGTGCAG,9320 fluorescence intensity (a.u.)
16,AATCTCTCTCATGGCGCGCCTAATCTCTCCTCAATGTGAACGGAGTCACCTAGTGCAG,8900 fluorescence intensity (a.u.)
17,CCACCCAGGCGCGTACCTCCCTAGTAAAAACGCCGCGCCGCGGAGTCACCTAGTGCAG,9570 fluorescence intensity (a.u.)
18,TTGTTAAAGTGTCACTCCAAATTGATATCAAACCGTTTCTCGGAGTCACCTAGTGCAG,8420 fluorescence intensity (a.u.)
19,AACAGTACCGGTAACAGCATACCCAAGCTGCTTCTCCGGACGGAGTCACCTAGTGCAG,9570 fluorescence intensity (a.u.)
20,CTCCGCCATGTTCTCCTGCCGCGAGCTCACCGAGCTTTACCGGAGTCACCTAGTGCAG,10300 fluorescence intensity (a.u.)
21,TATTCGGTTAATGCCTTTGTCGTGATCAATTGACCTTTTGCGGAGTCACCTAGTGCAG,9100 fluorescence intensity (a.u.)

row,Sequence,binding signal
1,TCTGTTAACACAAGTTATTGGTTATTGTTGACCTTTTCTTCGGAGTCACCTAGTGCAG,9270 fluorescence intensity (a.u.)
2,CATTGTTGTGATCTGCATATTTACTTCTGTTTTGATGTTTCGGAGTCACCTAGTGCAG,9160 fluorescence intensity (a.u.)
3,CTTCCTCTTTTCCCTGCTACCCGGTCGGCTCTATAAATACCGGAGTCACCTAGTGCAG,8710 fluorescence intensity (a.u.)
4,GCGGTGGCGGCGGCGGAGGCGGAGGCGGAGGCGGTGTTGACGGAGTCACCTAGTGCAG,11600 fluorescence intensity (a.u.)
5,CGGGAGAATTCGATTGATGTGGTGGGTTCTCTTCTTCTTCCGGAGTCACCTAGTGCAG,10800 fluorescence intensity (a.u.)
6,ACTCGTCGCCGCAACTCTACTTCCTCTTCGGGAACCCCAGCGGAGTCACCTAGTGCAG,9460 fluorescence intensity (a.u.)
7,TCACACGCATCGCTACCTCCTTCCCTCGTCGTCTTCTTCGCGGAGTCACCTAGTGCAG,9870 fluorescence intensity (a.u.)
8,TCCATCCTGCCATCACCGCTTACCCCTGTGCTCAATTAGACGGAGTCACCTAGTGCAG,8150 fluorescence intensity (a.u.)
9,AATGTTTGATACCGTTGACTTTTTAGTACGTGTTTGATCACGGAGTCACCTAGTGCAG,32600 fluorescence intensity (a.u.)
10,CGGTTTCCGTGTCCGATTCTGTTCTTCTCCATATGTTGATCGGAGTCACCTAGTGCAG,12100 fluorescence intensity (a.u.)
11,CTCGTAACCTGTACTACTGCATTTCCATTACATCTAGATACGGAGTCACCTAGTGCAG,11400 fluorescence intensity (a.u.)
12,ACGGACACTTTCTCCCTATGGAGCTTACTGTTTATGTACACGGAGTCACCTAGTGCAG,8600 fluorescence intensity (a.u.)
13,TTTTTTCTTTTTTTTTCTTTCACGCGGCTGGAGACTGGGGCGGAGTCACCTAGTGCAG,8270 fluorescence intensity (a.u.)
14,GTGTCAAACATGCCCTTCGTATAATGCTACTGTTAATTACCGGAGTCACCTAGTGCAG,8300 fluorescence intensity (a.u.)
15,CTCTGCAATCCCCAATACTGAGACTGAGCACACACCCACACGGAGTCACCTAGTGCAG,8370 fluorescence intensity (a.u.)
16,CTTTGTAGTTCAATATTGTTGTTTATACGTTTATACTTTCCGGAGTCACCTAGTGCAG,14200 fluorescence intensity (a.u.)
17,CACGCTCCACTAATCCCTCCCGCCCATTTCCCACGGCCAACGGAGTCACCTAGTGCAG,9830 fluorescence intensity (a.u.)
18,GGTATAAAATGGGGCGGGCTCAATTTTTGTTAATTTTTTTCGGAGTCACCTAGTGCAG,12500 fluorescence intensity (a.u.)
19,TGGGTGTGCTGGCGCTATGATTCGATGATCATGAACTCCTCGGAGTCACCTAGTGCAG,8730 fluorescence intensity (a.u.)
20,TTTTCTCTTTCTCTCTCCAAGGTGGCGGCGGGGTTGGTCCCGGAGTCACCTAGTGCAG,9020 fluorescence intensity (a.u.)
21,TATTCTTCTGATTCATCCTGTTGCTGTCTGTCAAGTGGGACGGAGTCACCTAGTGCAG,10600 fluorescence intensity (a.u.)

row,Sequence,binding signal
1,GCCCTGTTTATTTTGTACTACTACCGATCGGGCACGGATCCGGAGTCACCTAGTGCAG,8650 fluorescence intensity (a.u.)
2,ACTTGTTGGAGCTTCTGCCTTGTGTTGGGCACTGTGATAACGGAGTCACCTAGTGCAG,8320 fluorescence intensity (a.u.)
3,TGAGGGGCTCGGGGATTTGGAAATTTGCGTTTGGTTTTCGCGGAGTCACCTAGTGCAG,8160 fluorescence intensity (a.u.)
4,TTATCAAGACAACATTTTTTTTCCTTTGTGATGTTCTCAACGGAGTCACCTAGTGCAG,9310 fluorescence intensity (a.u.)
5,CCCTAATATTTTCGTGTCTTGGTCCATATCCTCCATAAACCGGAGTCACCTAGTGCAG,8940 fluorescence intensity (a.u.)
6,CGTCATCGCGACGGCTTGATGGATCTCTTGCTGGACACCGCGGAGTCACCTAGTGCAG,8360 fluorescence intensity (a.u.)
7,GCCGTAATGCTTCTGAGTTCTGACTCCTGCTGCGCTCTCACGGAGTCACCTAGTGCAG,9150 fluorescence intensity (a.u.)
8,CCAAGGAGCGTTGACTATTCGGCTTGAATAAAGGTGTGTTCGGAGTCACCTAGTGCAG,11600 fluorescence intensity (a.u.)
9,ATCAAATTTACTCTCTTTTATTTTTCTTCTTGTTTGTCGTCGGAGTCACCTAGTGCAG,10900 fluorescence intensity (a.u.)
10,GCCCCTTGTCCCGCGTCGGCGCGTCCGGCCGGCGCCCGGCCGGAGTCACCTAGTGCAG,10500 fluorescence intensity (a.u.)
11,TTCGTCTTCCACCTCGAGCTCTTACGCATCGTCAGCCATGCGGAGTCACCTAGTGCAG,9910 fluorescence intensity (a.u.)
12,TCATCTCGATGGTGCTAACTCAATCTTTGCATGTTGAATACGGAGTCACCTAGTGCAG,8030 fluorescence intensity (a.u.)
13,CTTCTGTCACCCTCCGTACCATCATCTACATCACCCCTCTCGGAGTCACCTAGTGCAG,8560 fluorescence intensity (a.u.)
14,ATCTTTGCCTCGTCAGGTTTTGCTCATTGGCGTCTCCATGCGGAGTCACCTAGTGCAG,10700 fluorescence intensity (a.u.)
15,GGAATTCACTGTCGGGGTCACACATCTACGTCCTTGTCCACGGAGTCACCTAGTGCAG,11900 fluorescence intensity (a.u.)
16,CTATGCTCCTGACCACTACTATCATCTCGTCTCGTCAGTCCGGAGTCACCTAGTGCAG,12900 fluorescence intensity (a.u.)
17,TCATGTCTCACTGTTCAGAACCTCGCTTCTCGCTTTGACTCGGAGTCACCTAGTGCAG,10700 fluorescence intensity (a.u.)
18,ATCTACCTGCACCAACCGGAGACGCCCGCGCCCAGCTACCCGGAGTCACCTAGTGCAG,8570 fluorescence intensity (a.u.)
19,AACTCCAAGTCTCTATTTTCTCTCTTTCATAAGGTTTCCACGGAGTCACCTAGTGCAG,10000 fluorescence intensity (a.u.)
20,GAAAACAAACTCATCATTAGGGTGTCTATATTCTCGCTCTCGGAGTCACCTAGTGCAG,8030 fluorescence intensity (a.u.)
21,GGCGGCGCGGGTTTAGCGGGATGGGGAGGCGGCGAGTGGCCGGAGTCACCTAGTGCAG,8140 fluorescence intensity (a.u.)

# Some of the entries above in a different format.
row	Sequence	binding signal
6	CGTCATCGCGACGGCTTGATGGATCTCTTGCTGGACACCGCGGAGTCACCTAGTGCAG	8360 fluorescence intensity (a.u.)
7	GCCGTAATGCTTCTGAGTTCTGACTCCTGCTGCGCTCTCACGGAGTCACCTAGTGCAG	9150 fluorescence intensity (a.u.)
8	CCAAGGAGCGTTGACTATTCGGCTTGAATAAAGGTGTGTTCGGAGTCACCTAGTGCAG	11600 fluorescence intensity (a.u.)

# Next entries follow.

row,Sequence,binding signal
1,TCCATTATGGTATTTCTTAGTTGTTCTTTTGTCTTTTACCCGGAGTCACCTAGTGCAG,8840 fluorescence intensity (a.u.)
2,GTATTATTGTCCCTTACATTGCTAACTCAATGTTGTATTACGGAGTCACCTAGTGCAG,8130 fluorescence intensity (a.u.)
3,CCCAGCACACTGCCAGCCAGCCAGCCACTCATCAATCACTCGGAGTCACCTAGTGCAG,8160 fluorescence intensity (a.u.)
4,AACAGACACACACCACCACCACTCTCTTCTCTACTACACTCGGAGTCACCTAGTGCAG,11200 fluorescence intensity (a.u.)
5,CCCACACACACTTCCAAGCTAGCCGTCTCCAACAACCCTCCGGAGTCACCTAGTGCAG,9570 fluorescence intensity (a.u.)
6,CGCGCCGCCCGCCGTCCCCATGCCACCGCGCTGCCCGCCGCGGAGTCACCTAGTGCAG,10200 fluorescence intensity (a.u.)
7,CTCCACCTTATCATCATCACCACCACTAACAACAACGCCACGGAGTCACCTAGTGCAG,8320 fluorescence intensity (a.u.)
8,TGTGTTATGACTTATGAGGCCTTTCTTTAATGGTAGAATGCGGAGTCACCTAGTGCAG,8370 fluorescence intensity (a.u.)
9,ATATTTTGCGTTTTGAATGAATTTTGGTTACTTGTTGGAGCGGAGTCACCTAGTGCAG,8192 fluorescence intensity (a.u.)
10,GCGTCTACGTGGCTTGTTTGACTAGATCTTCGTTCCACGTCGGAGTCACCTAGTGCAG,8320 fluorescence intensity (a.u.)
11,TCTTCGTTGTCTCCCTCGCTATCACTGTCATATTCCCATCCGGAGTCACCTAGTGCAG,8330 fluorescence intensity (a.u.)
12,TAATGTACATTTCCTCTCCGCCGGCCACCAGTCTTCTCCCCGGAGTCACCTAGTGCAG,8640 fluorescence intensity (a.u.)
13,ATCCTGTTCTATATTCGTTTCGTTTTTTATAGGAACTACTCGGAGTCACCTAGTGCAG,9010 fluorescence intensity (a.u.)
14,CCCCACAACCCCGCATCGTCATCACCACCACCACTCCTCGCGGAGTCACCTAGTGCAG,8480 fluorescence intensity (a.u.)
15,TATGATCCATATGCTACTGAACTCGTTATCTTGTGTCTAGCGGAGTCACCTAGTGCAG,8370 fluorescence intensity (a.u.)
16,CCCTTCCTACCCCACCTCGCCGTCGCCGCGCGCTCCACCCCGGAGTCACCTAGTGCAG,8110 fluorescence intensity (a.u.)
17,TTGTCGTACTCCAGTACTCCACTATCGCTGCCACGACCATCGGAGTCACCTAGTGCAG,8290 fluorescence intensity (a.u.)
18,ATATATAGTGGGTGGTCTAATTAATTAAGCTAATTCTAAGCGGAGTCACCTAGTGCAG,8630 fluorescence intensity (a.u.)
19,TGCTGCCCGAGGCCCACACTGAATTCCTCCCTCACTTTCCCGGAGTCACCTAGTGCAG,10700 fluorescence intensity (a.u.)
20,TCTCAATTCTTGCTTACTTGCGCTGTTGATTCATATGGCTCGGAGTCACCTAGTGCAG,8690 fluorescence intensity (a.u.)
21,ACCTCGCCCGCCGTCTCGCTCGCTGTCTCGTCGCCCTCACCGGAGTCACCTAGTGCAG,12600 fluorescence intensity (a.u.)
